Measured values published in the supplement of paper PMC3334620.
Whole data set: some 33,000 sequences, median “E-score (-0.5 to 0.5)” near -0.0034, cut for the highest 2% near 0.25. Some of the results follow.

biological target: T1, Yap3 (UniProt P38749); experiment: PBM E-score (8-mer binding enrichment) (E-score (-0.5 to 0.5)); higher = stronger / more preferred TF binding; conditions: protein concentration: 100 nM; construct: GST-full length
T1 sequence: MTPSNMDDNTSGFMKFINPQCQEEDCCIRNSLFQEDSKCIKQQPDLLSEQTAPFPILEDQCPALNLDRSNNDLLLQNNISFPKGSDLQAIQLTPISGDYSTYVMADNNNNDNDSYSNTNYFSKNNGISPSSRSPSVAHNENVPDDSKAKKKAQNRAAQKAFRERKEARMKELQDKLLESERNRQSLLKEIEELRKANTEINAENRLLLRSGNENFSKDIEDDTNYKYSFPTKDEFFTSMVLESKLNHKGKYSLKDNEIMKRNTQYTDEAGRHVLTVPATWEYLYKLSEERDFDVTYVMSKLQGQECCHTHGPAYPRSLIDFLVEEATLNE
Description: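 Universal 'all 10-mer' protein binding microarrays (Agilent AMADID 015681) probed with GST-tagged S. cerevisiae TFs (full-length or DBD) made by in vitro transcription/translation (PURExpress), about 100-200 nM. Bound TF was detected with fluorescent anti-GST. Each ungapped 8-mer (which stands for itself and its reverse complement) is scored by the PBM enrichment score (E-score), a modified Wilcoxon-Mann-Whitney statistic from -0.5 to +0.5, computed with the Universal PBM Analysis Suite. Scale: above 0.35 generally sequence-specific binding.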

| Sequence | PBM E-score |
| --- | --- |
| CACCTGCC | -0.0678 |
| AAAACCTT | -0.0773 |
| GACAAGAA | 0.127 |
| CAAGGTTC | -0.224 |
| CCCAACTC | 0.0817 |
| GACGTCGC | -0.0943 |
| CATGGGCC | -0.116 |
| ATTACAGC | -0.046 |
| CGCCAGAG | -0.118 |
| CTGCAAAA | 0.0159 |
| AACGCGAT | 0.0957 |
| ATTAGAAT | 0.126 |
| ACGCATTG | -0.00378 |
| GATCGTAA | 0.0365 |
| AAAAGATG | 0.123 |
| CAGAACCA | -0.04 |
| CCGAGATC | -0.0186 |
| GGGTGGAA | -0.0404 |
| GGTCGTAC | -0.178 |
| TATTAAAA | 0.217 |
| GAAGACTC | -0.0994 |
| CATTAGGA | 0.051 |
| ATATATCC | 0.242 |
| CCCTTCCG | -0.213 |
| AGGTAGAT | -0.0907 |

| Sequence | PBM E-score |
| --- | --- |
| ACCGCGGT | 0.0694 |
| GGAAGTAC | 0.0054 |
| ATATCGGC | 0.0525 |
| CTATCCTC | 0.00708 |
| TACCAGTA | 0.0609 |
| GTCCCGAC | -0.192 |
| ACCGACGA | -0.0888 |
| GTGCTGAA | -0.163 |
| AATATGTG | 0.273 |
| TCAGCGGA | 0.0247 |
| CATTCATC | 0.0469 |
| CGAAAACG | -0.0141 |
| GTGTGGGA | 0.109 |
| CCTTATAA | 0.169 |
| CGTCAAAG | -0.00136 |
| CGTTTCAG | 0.0999 |
| AGCATGAG | 0.132 |
| CATTTACC | 0.21 |
| CACAGTCA | -0.112 |
| ACGTACCC | 0.104 |
| AGGATTAT | -0.123 |
| CAGGCATC | -0.133 |
| CCAAAAGC | -0.116 |
| AGCATACC | 0.118 |
| ACAGTACC | -0.0947 |

| Sequence | PBM E-score |
| --- | --- |
| ACAACTCG | 0.0431 |
| ATCGAACC | 0.122 |
| CGGATGGA | 0.0708 |
| AATGATCT | 0.0958 |
| GCCTTATA | -0.0672 |
| AAAGAAAG | 0.231 |
| AATTCTCA | 0.0354 |
| AGCGACCT | -0.138 |
| GCTAGTCC | -0.176 |
| AGACGACC | -0.0822 |
| AGCTCTGA | -0.181 |
| AATAGCAT | 0.11 |
| ACTTTCGC | 0.00931 |
| AACCAGGT | -0.0843 |
| AGGGCCGC | -0.349 |
| GAAGTTCA | 0.0821 |
| AACCGCGC | 0.198 |
| CGATGCGA | -0.147 |
| GAAACAAA | 0.251 |
| CTAGCTAG | 0.0872 |
| AGGTGGAG | -0.142 |
| ACAGGGGG | -0.413 |
| AAATGGAT | 0.142 |
| CAACCAGC | -0.0574 |
| ATCCCGGA | 0.00231 |

| Sequence | PBM E-score |
| --- | --- |
| GCGCCAGC | -0.316 |
| CGAGTATC | -0.0409 |
| ATTTCTCG | 0.251 |
| ATCGTGGC | -0.105 |
| GGGGATTA | 0.0472 |
| TGCAAAAA | 0.194 |
| CCGGTTGA | -0.115 |
| ACGAGCGG | 0.0103 |
| GTACGGAC | 0.0183 |
| GAATTACC | 0.0694 |
| GGCTGCCC | -0.308 |
| GGCTGATA | -0.059 |
| AGGAGCGC | -0.0439 |
| AGGAACAT | -0.0291 |
| TATGAGAA | 0.206 |
| CTCAGCTA | -0.224 |
| AGAAACTA | 0.0625 |
| ACGCATGA | 0.0311 |
| CCCCGACA | -0.127 |
| AATTCCGT | 0.235 |
| ACGTACCT | -0.159 |
| CCTCACGC | 0.174 |
| CAATTCAC | 0.126 |
| TGAGCACA | -0.00248 |
| TGCCGCAA | 0.168 |

| Sequence | PBM E-score |
| --- | --- |
| ACCAAGTC | 0.0727 |
| CTCACCAG | -0.0897 |
| CGGTGCAA | -0.238 |
| ACGCGAAC | 0.121 |
| GCGTGGAC | -0.2 |
| CGTGTCTA | 0.0292 |
| ACCATGGA | -0.167 |
| TGTACTAA | 0.189 |
| GCGACGCA | -0.0118 |
| AAGAAGAG | 0.0502 |
| AGTCCACC | 0.0671 |
| AGTGGGCA | 0.073 |
| CTCTGGGA | -0.259 |
| CGAGATAC | 0.235 |
| GAAATACA | 0.0912 |
| GTGGTCAA | 0.027 |
| CGTCCACG | -0.108 |
| ATAATTCG | 0.242 |
| CAAGTAGC | 0.0461 |
| GATCAATA | 0.0561 |
| CTAACTGA | 0.0987 |
| CGGGCTAC | -0.0803 |
| AGCTTTTA | 0.0679 |
| GATATCCA | 0.224 |
| ATCAAAAA | 0.245 |

| Sequence | PBM E-score |
| --- | --- |
| CGTGACTC | -0.221 |
| CAGCAGGG | -0.186 |
| CCCTCCAC | -0.18 |
| CGTCACAC | -0.0225 |
| ACATCTCA | 0.112 |
| ATTACCAG | 0.0993 |
| ACGGGTCC | -0.285 |
| TTCTAGAA | -0.0421 |
| ACAACTGG | 0.0446 |
| TATCCTGA | 0.182 |
| ACCGCGCG | 0.211 |
| ATAAGACG | 0.0979 |
| GCACAGGC | 0.0169 |
| CAGACGGC | -0.217 |
| GACGTTGA | -0.00153 |
| CGGGCCGC | -0.11 |
| AGCAGGCG | -0.122 |
| AACATTAG | 0.046 |
| TACAAAAA | 0.207 |
| ACGGAAAC | -0.079 |
| CATATACG | 0.108 |
| ACCTGGCC | -0.0457 |
| GAGTTTGA | 0.0875 |
| ACCGTTAA | 0.143 |
| CGAGTGCC | -0.299 |

| Sequence | PBM E-score |
| --- | --- |
| ATTTATCG | 0.14 |
| GGAGCTCC | -0.228 |
| CCTGGGCG | -0.225 |
| AACAAGGA | 0.198 |
| TCCCTAGA | -0.0665 |
| GATCGCGC | 0.0573 |
| GGTCGGCA | -0.16 |
| ACATCTTC | 0.0249 |
| AAGAGGCT | -0.0985 |
| CATGCCGC | 0.218 |
| CACGATAA | 0.2 |
| CGTTCATA | -0.0126 |
| CAACCTGA | -0.046 |
| CACGTAGA | 0.129 |
| AGGTTGTG | 0.0448 |
| ATGGCCGC | -0.139 |
| CGTTTGGC | 0.0237 |
| ACCGATGA | 0.00688 |
| ATACAACC | 0.158 |
| ACTTGAAA | 0.22 |
| CCCATTCA | 0.0473 |
| GAACCCCA | -0.0227 |

Some values from the entries so far:
PBM E-score with ACAACTCG is entered as 0.0431
PBM E-score with CGTCACAC is entered as -0.0225

6 records drawn at random from the list so far:

| Sequence | PBM E-score |
| --- | --- |
| CCCTCCAC | -0.18 |
| AGCATACC | 0.118 |
| CGAGATAC | 0.235 |
| CAGCAGGG | -0.186 |
| CCCCGACA | -0.127 |
| ACGGGTCC | -0.285 |
